Assay results as given in article PMC2654408 (PLoS ONE, 2009).
Results are given in words; binding and its absence hold for the method and conditions named. Some entries that bind do so weakly or less than the wild type.

Chains of the proteins cited; added tags and fusions are not shown. Residues count along the entry.
UniProt P36544, residues 23-502: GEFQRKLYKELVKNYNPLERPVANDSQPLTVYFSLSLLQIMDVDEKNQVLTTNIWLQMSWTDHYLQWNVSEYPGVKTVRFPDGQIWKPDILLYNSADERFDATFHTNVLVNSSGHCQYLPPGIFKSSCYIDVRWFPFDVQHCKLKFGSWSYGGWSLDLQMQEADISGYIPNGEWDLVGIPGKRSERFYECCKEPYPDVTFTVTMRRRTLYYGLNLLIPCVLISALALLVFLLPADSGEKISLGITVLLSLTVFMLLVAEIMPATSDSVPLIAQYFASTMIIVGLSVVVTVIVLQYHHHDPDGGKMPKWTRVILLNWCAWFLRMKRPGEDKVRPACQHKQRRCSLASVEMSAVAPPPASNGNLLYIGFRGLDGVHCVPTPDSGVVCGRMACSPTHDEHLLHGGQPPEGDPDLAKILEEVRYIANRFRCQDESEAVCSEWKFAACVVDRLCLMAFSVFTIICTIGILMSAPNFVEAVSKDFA
UniProt P60615, residues 22-95: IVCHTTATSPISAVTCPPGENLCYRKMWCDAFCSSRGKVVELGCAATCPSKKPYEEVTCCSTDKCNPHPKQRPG

Target: human alpha-7 nicotinic acetylcholine receptor (human) (UniProt P36544)
Assay: radioligand binding; only the binder purified

For “[125I]alpha-bungarotoxin (from UniProt P60615 22-95) (ligand)”, the binding was “binds”.
